Results: paper PMC8281810
Results are given in words; binding and its absence hold for the method and conditions named. In cells and extracts the contact can be indirect. Some results given as binding are weak or reduced against the parent protein; the word gives no strength.

The chains behind the UniProt entries cited, without tags or fusion partners. Where a name states a change or a piece, a line headed by the entry shows the natural chain unless it says otherwise.
UniProt Q6ZMR5: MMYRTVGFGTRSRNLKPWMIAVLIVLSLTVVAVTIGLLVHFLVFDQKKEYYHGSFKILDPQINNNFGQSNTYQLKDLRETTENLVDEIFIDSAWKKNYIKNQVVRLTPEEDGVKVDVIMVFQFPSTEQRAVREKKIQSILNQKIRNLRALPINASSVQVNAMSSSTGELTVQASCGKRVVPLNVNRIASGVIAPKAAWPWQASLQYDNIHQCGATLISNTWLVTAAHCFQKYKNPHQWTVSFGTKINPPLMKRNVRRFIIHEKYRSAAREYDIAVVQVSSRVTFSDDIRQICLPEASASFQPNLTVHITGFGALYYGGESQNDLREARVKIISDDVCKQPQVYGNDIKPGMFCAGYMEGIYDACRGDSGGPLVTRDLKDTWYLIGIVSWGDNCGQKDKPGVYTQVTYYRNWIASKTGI
UniProt P05556: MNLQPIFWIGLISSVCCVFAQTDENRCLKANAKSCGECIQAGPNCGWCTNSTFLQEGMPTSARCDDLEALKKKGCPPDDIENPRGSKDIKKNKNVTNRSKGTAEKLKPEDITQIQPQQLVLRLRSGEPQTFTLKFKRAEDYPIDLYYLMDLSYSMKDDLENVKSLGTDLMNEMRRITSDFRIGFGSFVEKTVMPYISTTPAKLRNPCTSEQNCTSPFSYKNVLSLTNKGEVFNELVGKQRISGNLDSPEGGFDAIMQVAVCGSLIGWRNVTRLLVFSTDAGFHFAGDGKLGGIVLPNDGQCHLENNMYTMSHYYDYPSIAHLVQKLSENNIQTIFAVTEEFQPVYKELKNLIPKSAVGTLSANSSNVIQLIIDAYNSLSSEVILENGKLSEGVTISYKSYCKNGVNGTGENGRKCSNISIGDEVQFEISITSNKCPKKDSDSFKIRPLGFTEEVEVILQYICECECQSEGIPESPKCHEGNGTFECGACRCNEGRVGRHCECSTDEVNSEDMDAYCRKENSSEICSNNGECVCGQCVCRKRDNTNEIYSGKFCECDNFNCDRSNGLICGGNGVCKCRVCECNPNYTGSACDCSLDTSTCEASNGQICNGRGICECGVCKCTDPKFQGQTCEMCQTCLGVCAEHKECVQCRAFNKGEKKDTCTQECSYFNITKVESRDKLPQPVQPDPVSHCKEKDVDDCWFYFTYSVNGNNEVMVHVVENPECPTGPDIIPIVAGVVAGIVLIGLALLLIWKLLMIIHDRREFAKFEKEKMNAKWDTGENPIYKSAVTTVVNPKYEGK

Biological target: Transmembrane Serine protease 11A (TMPRSS11a) (UniProt Q6ZMR5)
Assay: proximity ligation; proximity ligation assays (PLA) between TMPRSS11a and beta-1 Integrin; cells not given

binding: binds
Substance: Integrin beta-1 protein (from UniProt P05556 21-798) (receptor)
